Test results published in the supplement of paper PMC5949888.
Most values lie at the floor of the assay. Slopes are relative: functional sequences can read slightly below zero.

Tested on: Saccharomyces cerevisiae PS128 hsf1 delta, HSF1(1-493) fusion
Assay: growth estimate (transactivation domain function in HSF1 fusion, heat-shock survival) (a.u. (slope of normalised read count over time)); higher = stronger growth at 37°C, i.e. more transactivation activity
Conditions: library: random library
Protocol: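 Random 60-nt DNA library encoding peptides of up to 20 aa, fused to the C-terminus of yeast HSF1 residues 1-493 (C-terminal TAD deleted) and expressed from the native HSF1 promoter on a CEN plasmid in hsf1-deleted S. cerevisiae PS128. Cells were selected at 37°C on -trp 5-FOA plates for 0, 2, 4, 6 and 8 days and amplicons were sequenced. Growth estimate is the slope of a robust linear fit of total-sum-normalised read counts (normalised to the first time point) over time, using at least 2 replicates. Sequences are classed functional (TAD activity) above a threshold of -0.13, set from stop-codon control sequences.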

Substance | growth estimate
ISYCHLSRTVSFERLPTVKW | < -0.25
KMVAWK | < -0.25
MSTELVGDWVEGDFA | < -0.25
SDCFVYIGCPLMNSGHGSLT | < -0.25
CGKLYRIGILWFTQPVYRKI | < -0.25
QRGGLPAGRTRGNSLSSRVD | < -0.25
RPDRSGVIWLSLGQSTVVW | < -0.25
CTAWCEVGKYHHDTV | < -0.25
YKLRPRVHKALDPAVC | < -0.25
FEYICLL | < -0.25
IDGVGDAWLCIDAGATLPFG | < -0.25
REVLVSDPLLVMGSPSERKN | < -0.25
MRGRVSLAAGSNSAWEIDFT | < -0.25
YQYVIWYQEEF | < -0.25
TLYGCAALGSGDLSVGHPML | < -0.25
QGIGLEGRMRT | < -0.25
FGSSWTSSEA | < -0.25
KAASATALSSRGPIVFFEDG | < -0.25
STMWLTRAA | < -0.25
SRKR | < -0.25
AATFWRLYGARADAEYRRAA | < -0.25
WFRMDTFRDNTRAMKERSRL | < -0.25
LKDTRTPCQG | < -0.25
QYTRAAQFCARYSS | < -0.25
VRKPAQCG | < -0.25

Substance | growth estimate
ISR | < -0.25
CGL | < -0.25
FIPGVK | < -0.25
EWLNHRPLDICSVALQ | -0.25
TAQVPRCVGAEPRARLELEG | < -0.25
SVWG | < -0.25
PHGSMSVYCI | < -0.25
CRLLP | < -0.25
CHYTHSKLLIRG | < -0.251
VASNTEHPRLGPGRNIRHLG | < -0.25
SKFMGGSAVD | < -0.25
SGSFLD | < -0.25
YKSVCIGGLGLTGEYYTILS | < -0.25
KFSSYVRRSRV | < -0.25
RACEVRASVALTGGRGRS | < -0.25
VFVGIDTPFPMFGFYGPGLQ | 0.0033
KSTVMGRLSW | < -0.25
YLSARKQR | < -0.25
ADKTSHVAVTLAFCSHPCVV | < -0.25
SRGVQATR | < -0.25
ATT | < -0.25
SHAASPVEREACLIGPGVL | < -0.25
GTDMILILGASLFGDALPAK | < -0.25
VTIG | < -0.25
SLPLATAG | < -0.25

Substance | growth estimate
GAALGGMRCGRKGFALLSLS | < -0.25
GIASLLDRLVGLGSTRADGP | < -0.25
GGRGSRM | < -0.25
LNPQRSQQHGPV | < -0.25
LSQPSCIN | < -0.25
ERYTSMVECARKTRSSSRTK | < -0.25
AWTSEKLG | < -0.25
AAEQAQFTDARGLDRMLYLT | < -0.25
AGWML | < -0.25
LQWGKPRHNVFTMCSGTIKR | < -0.25
HIQR | < -0.25
YNCL | < -0.25
YSNAVGLVNHHQGEFAGGAC | < -0.25
SRLWKH | < -0.25
LNCDNTRRTWENCGSVCAAS | < -0.25
MANNGVLNGA | < -0.25
AARSFGHRKLDTTVSGKGLV | < -0.25
CSRRLCYHVTTPTHRNHTAI | < -0.25
VWVWCEWLI | < -0.25
QWSGGSPYEKGRFQ | < -0.25
SLVQLDAVDQIEHFHPCVCT | -0.236
DQSLEV | < -0.25
VTIQVSLFFGSCTFLHTRST | < -0.25
SPPLFPLQPGILQGGGPTRG | < -0.25
LELEFRCQYPSSLVMTRELW | < -0.25

A second format for some results above:
Substance	growth estimate
REVLVSDPLLVMGSPSERKN	< -0.25
TLYGCAALGSGDLSVGHPML	< -0.25
FGSSWTSSEA	< -0.25
SKFMGGSAVD	< -0.25
VFVGIDTPFPMFGFYGPGLQ	0.0033
AARSFGHRKLDTTVSGKGLV	< -0.25

The results go on:

Substance | growth estimate
QLLGRFTGAKDVRD | < -0.25
WCEIVGMELCVLDAGWVPGP | < -0.25
LEIMGN | < -0.25
TSRHLHRAIGICMAK | < -0.25
IQGFEQCVWSHVYSSSI | < -0.25
INQVPRTQNDSNPLNPGWHL | < -0.25
GRCFVVVSTIRRPTRIA | -0.231
GMASPS | -0.236
PYGWTELSFLVVW | < -0.25
VQGSSARPC | < -0.25
SSFQ | < -0.25
VGTYGRG | < -0.25
TAPNCLAACRSWAGGFGMEP | < -0.25
LRHPKLSSLSRRGRPHFIPC | < -0.25
SPARLKCFCGRRDAGVATTL | < -0.25
LRVT | < -0.25
VPTLDGDSRVRPGRVSLVGG | < -0.25
PESLLKTAGAPLTCGLYVSG | < -0.25
PIVPTGYSI | < -0.25
LCGLGRGIQRHAPL | < -0.25
GAFLPSEPGWWPLSFPNSWL | < -0.25
AVFV | < -0.25
GNHKTNTKGSLSHYVMAE | < -0.25
IPVRVRPGLVSNNPNTPVHA | < -0.25
DDYVIGGHAGTYIGRAVIKY | < -0.25

Substance | growth estimate
GYST | < -0.25
QCGHAAPVS | < -0.25
GRAIS | < -0.25
LACA | < -0.25
THMICGK | -0.246
VQGARLPVPLKLYSSVAEPL | < -0.25
DLYSVGGKLVSSRFPFAKPV | < -0.25
GCVVRP | < -0.25
LLSSMHSGVNRWSETPTVRD | < -0.25
QAFGLDCAHGLPGDPGNMHH | < -0.25
TRLNKDANLQQGW | < -0.25
KFERWWG | < -0.25
SCRFRSEDIT | < -0.25
PTIWGGVQSRFLYLSDSRRQ | < -0.25
PSGLSVSPILGRNPNRKGNP | -0.245
NEWGALPIYFVFFVRTAQTS | < -0.25
VFILRLSDIVSASTLTEYSS | < -0.25
SQNASRAANHLIVVTARREP | < -0.25
RML | < -0.25
DPTHGARLVSVYVPHVDEVS | < -0.25
LEEGPNWNSGLFVL | < -0.25
KRIEKAVRLTCL | < -0.25
HIAGAPNPLGSASQVGEYCA | < -0.25
GIFLILERIWALDLP | < -0.25
GSIGDSASEARCIQYVIGDV | < -0.25

Substance | growth estimate
TVEGVRGG | < -0.25
SEQCFRSKWGMRNSKPKRAL | < -0.25
GLPLETWRNG | < -0.25
EDNCYKSLVADERGPNVGVP | < -0.25
LEIRQLRIYGTGTQGGIPKC | < -0.25
SPTIFWKVTDRRA | -0.248
RCMHPLCKA | < -0.25
SQRPDAIAWSV | < -0.25
SLSGSTRFR | < -0.25
AKLGERPGPF | < -0.25
SSGEAPRLRASPCGQCLKTD | < -0.25
CER | < -0.25
AQSSVITSDQKIGVREGQRG | < -0.25
VWGFHSRRMFRTIIQRRIRC | < -0.25
VRAA | < -0.25
TQAEPRHI | < -0.25
SARIRAVL | < -0.25
FCTFEILVQKSNNAAPVRSS | < -0.25
TSLFLVEVAAAVAASNWRRL | < -0.25
CVGVWSLEDGWQRLGKKEA | < -0.25
SLPGSQFNNSSSIEVTHRV | < -0.25
RVSTLVGRKS | < -0.25
PGVEFHPRGTPV | < -0.25
